# Source: paper PMC7347935, “STK11 (LKB1) missense somatic mutant isoforms promote tumor growth, motility and inflammation” (Communications Biology, 2020)
# No constants are given. Whether binding was seen depends on the method and setting. Binding seen in cells or lysates may run through a third protein. Some results given as binding are weak or reduced against the parent protein; the word gives no strength.
# T1: LKB1^WT (STK11, Liver kinase 1), wild-type isoform (human) (UniProt Q15831)
# T1 sequence: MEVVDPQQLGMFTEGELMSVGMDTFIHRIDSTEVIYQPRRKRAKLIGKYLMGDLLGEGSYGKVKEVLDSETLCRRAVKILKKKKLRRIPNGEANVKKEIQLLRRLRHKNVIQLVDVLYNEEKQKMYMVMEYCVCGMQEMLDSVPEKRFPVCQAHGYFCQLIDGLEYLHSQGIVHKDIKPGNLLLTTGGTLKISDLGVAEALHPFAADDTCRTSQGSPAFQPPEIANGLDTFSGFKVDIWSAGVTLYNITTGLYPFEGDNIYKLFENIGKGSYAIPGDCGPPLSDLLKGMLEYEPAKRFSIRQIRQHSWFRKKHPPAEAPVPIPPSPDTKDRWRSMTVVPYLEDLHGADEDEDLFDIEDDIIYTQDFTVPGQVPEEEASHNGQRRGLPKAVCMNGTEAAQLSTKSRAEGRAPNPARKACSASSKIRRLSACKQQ
# B1: STRADα (natural protein, human (endogenous in A549 and G361), UniProt Q7RTN6 1-431, looked up)
# chain: MSFLVSKPERIRRWVSEKFIVEGLRDLELFGEQPPGDTRRKTNDASSESIASFSKQEVMSSFLPEGGCYELLTVIGKGFEDLMTVNLARYKPTGEYVTVRRINLEACSNEMVTFLQGELHVSKLFNHPNIVPYRATFIADNELWVVTSFMAYGSAKDLICTHFMDGMNELAIAYILQGVLKALDYIHHMGYVHRSVKASHILISVDGKVYLSGLRSNLSMISHGQRQRVVHDFPKYSVKVLPWLSPEVLQQNLQGYDAKSDIYSVGITACELANGHVPFKDMPATQMLLEKLNGTVPCLLDTSTIPAEELTMSPSRSVANSGLSDSLTTSTPRPSNGDSPSHPYHRTFSPHFHHFVEQCLQRNPDARPSASTLLNHSFFKQIKRRASEALPELLRPVTPITNFEGSQSQDHSGIFGLVTNLEELEVDDWEF
# Molecular target: T1, LKB1^WT (STK11, Liver kinase 1), wild-type isoform (human)
# Experiment: co-IP; LKB1 immunocomplexes from A549 and G361 cells expressing doxycycline-induced LKB1 isoforms; STRADα detected by western blot; duplicate immunoprecipitates for each isoform
binder,measurement,value
B1,binding,binds
